No constants are given. Whether binding was seen depends on the method and setting. Binding seen in cells or lysates may run through a third protein. Some entries that bind do so weakly or less than the wild type.

The chains behind the UniProt entries cited, without tags or fusion partners.
UniProt Q9QUR7: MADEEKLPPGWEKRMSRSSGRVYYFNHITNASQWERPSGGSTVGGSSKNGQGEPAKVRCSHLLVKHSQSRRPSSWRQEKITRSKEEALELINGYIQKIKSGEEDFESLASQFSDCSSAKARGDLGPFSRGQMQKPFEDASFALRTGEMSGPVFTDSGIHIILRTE
UniProt Q9R1K5: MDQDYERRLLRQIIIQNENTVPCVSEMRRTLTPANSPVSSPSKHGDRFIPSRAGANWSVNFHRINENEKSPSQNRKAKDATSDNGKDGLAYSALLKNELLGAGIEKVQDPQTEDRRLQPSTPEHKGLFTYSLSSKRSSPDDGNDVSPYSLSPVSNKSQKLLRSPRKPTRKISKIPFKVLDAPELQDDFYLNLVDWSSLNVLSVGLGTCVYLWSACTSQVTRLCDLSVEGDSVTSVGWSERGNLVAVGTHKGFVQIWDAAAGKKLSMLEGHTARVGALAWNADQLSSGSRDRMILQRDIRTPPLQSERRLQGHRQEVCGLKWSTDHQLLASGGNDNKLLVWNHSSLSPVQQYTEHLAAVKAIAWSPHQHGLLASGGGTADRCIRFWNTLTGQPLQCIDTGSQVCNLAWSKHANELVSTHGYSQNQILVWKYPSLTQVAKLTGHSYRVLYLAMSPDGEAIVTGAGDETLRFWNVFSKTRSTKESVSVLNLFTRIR

Here are results for one substance from publication PMC11018817, “Reciprocal antagonism of PIN1-APC/C^CDH1 governs mitotic protein stability and cell cycle entry” (Nature Communications, 2024).

The experiment addresses endogenous Pin1 of transgenic mouse cells (mouse (endogenous in transgenic mouse cells)) (UniProt Q9QUR7). As to the kind of experiment: co-IP; endogenous proteins; MDA-MB-231 cells and transgenic mouse cells treated with 10 μM MG132 for 12 h, precipitated with IgG or anti-PIN1 antibodies.

Take “endogenous Cdh1 of transgenic mouse cells (from UniProt Q9R1K5 1-493)”: the binding result was “binds”.
